These are yes or no findings as the source states them, for the method shown. In cells and extracts the contact can be indirect. A yes stands for co-enrichment or nearness to the bait. Other partners may have been found. Where a sequence is shown, tags or fusion partners need not be part of it.
Molecular target: T1, Flag-VCPIP1 (valosin-containing protein-interacting protein 1), overexpressed in PANC-1 cells (UniProt Q96JH7)
T1 sequence: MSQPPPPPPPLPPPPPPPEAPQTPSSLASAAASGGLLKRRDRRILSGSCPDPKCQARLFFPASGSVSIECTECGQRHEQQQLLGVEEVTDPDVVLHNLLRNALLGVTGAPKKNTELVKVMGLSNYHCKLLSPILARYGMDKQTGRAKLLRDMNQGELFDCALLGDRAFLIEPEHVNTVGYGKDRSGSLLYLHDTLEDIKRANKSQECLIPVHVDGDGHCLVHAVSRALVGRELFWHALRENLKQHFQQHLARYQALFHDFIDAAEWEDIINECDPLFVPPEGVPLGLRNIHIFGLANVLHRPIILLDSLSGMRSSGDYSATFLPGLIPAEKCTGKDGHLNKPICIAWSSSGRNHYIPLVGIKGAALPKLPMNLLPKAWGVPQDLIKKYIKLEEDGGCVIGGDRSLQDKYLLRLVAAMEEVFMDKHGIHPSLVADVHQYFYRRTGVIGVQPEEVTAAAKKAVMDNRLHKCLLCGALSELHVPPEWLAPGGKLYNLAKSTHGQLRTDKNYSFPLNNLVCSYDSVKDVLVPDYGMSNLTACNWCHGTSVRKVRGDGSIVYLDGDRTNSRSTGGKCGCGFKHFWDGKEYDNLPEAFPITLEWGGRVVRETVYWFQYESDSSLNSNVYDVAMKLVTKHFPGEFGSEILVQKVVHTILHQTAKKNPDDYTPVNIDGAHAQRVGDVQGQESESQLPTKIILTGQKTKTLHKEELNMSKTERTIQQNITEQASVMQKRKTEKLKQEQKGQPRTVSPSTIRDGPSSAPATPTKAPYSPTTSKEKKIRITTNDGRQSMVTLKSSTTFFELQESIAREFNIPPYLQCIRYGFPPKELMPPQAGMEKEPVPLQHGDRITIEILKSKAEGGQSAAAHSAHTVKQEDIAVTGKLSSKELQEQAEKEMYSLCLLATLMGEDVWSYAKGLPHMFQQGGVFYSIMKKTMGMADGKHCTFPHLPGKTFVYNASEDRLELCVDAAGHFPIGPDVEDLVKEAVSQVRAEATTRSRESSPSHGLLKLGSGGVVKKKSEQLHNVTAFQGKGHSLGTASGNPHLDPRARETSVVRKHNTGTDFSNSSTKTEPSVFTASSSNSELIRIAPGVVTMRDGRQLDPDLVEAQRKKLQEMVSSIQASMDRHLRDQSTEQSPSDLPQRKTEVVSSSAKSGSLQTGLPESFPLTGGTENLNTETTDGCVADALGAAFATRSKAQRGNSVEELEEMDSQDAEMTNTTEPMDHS
Assay: affinity purification with mass spectrometry; Flag-VCPIP1 overexpressed in PANC-1 cells; lysate immunoprecipitated with anti-Flag antibody or isotype IgG; SDS-PAGE, Coomassie stain, band excised, trypsin digest, LC-MS/MS

Protein sequences, listed by entry. Tags and fused reporters are not part of them.
UniProt P46937: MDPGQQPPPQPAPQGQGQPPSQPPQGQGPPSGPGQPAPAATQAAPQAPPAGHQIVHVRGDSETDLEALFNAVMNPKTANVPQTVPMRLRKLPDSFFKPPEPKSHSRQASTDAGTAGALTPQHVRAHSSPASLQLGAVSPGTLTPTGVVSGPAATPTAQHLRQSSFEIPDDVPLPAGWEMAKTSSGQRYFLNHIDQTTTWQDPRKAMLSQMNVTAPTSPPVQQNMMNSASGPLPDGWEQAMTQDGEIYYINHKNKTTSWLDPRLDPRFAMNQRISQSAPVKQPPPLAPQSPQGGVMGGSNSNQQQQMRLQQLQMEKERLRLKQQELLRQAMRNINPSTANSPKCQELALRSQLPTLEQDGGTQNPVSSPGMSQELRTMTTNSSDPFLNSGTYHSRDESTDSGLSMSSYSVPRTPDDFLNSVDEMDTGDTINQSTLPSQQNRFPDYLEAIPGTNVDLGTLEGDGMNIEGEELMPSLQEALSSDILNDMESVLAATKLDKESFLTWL

binding: binds
Substance: YAP, endogenous in PANC-1 cells (from UniProt P46937 1-504)
